Results deposited as PubChem BioAssay AID1259298 (Sanger Institute, 2017)
Aim: 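Kinome knock-downs lethal on their own or synergising with anchor drugs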 (primary screen). Cells: HT55 human colorectal cancer cell line. Reagent: siRNA pool against human genes. Conditions: anchor drug BYL719 1 µM, cetuximab 5 µg/ml or trametinib 10 nM, or DMSO vehicle alone. Measured: 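Replicate-averaged viability versus wells of non-targeting pool; knock-down-only robust z-score; per-drug synergy score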. Reading the numbers: robust z-score, knock-down alone: higher = more cells remaining; low means essential gene; viability vs control pool, no drug: higher = more viable cells; synergy score with BYL719 and synergy score with cetuximab and synergy score with trametinib: higher = stronger synthetic lethality with the drug. Active means: 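Essential when the robust z-score for knock-down alone with DMSO is below -3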. Meaning of the calls: active = essential (knock-down alone); inactive = no change alone.
In all, the deposit lists 794 reagents; below is an unselected part. Of all reagents, 20 (2.5%) are marked active. 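Calls rest only on the knock-down-alone score; drug synergy scores played no part in them.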 No viability above 1 is reported: the scale is capped. Not stated in the record: the amount of reagent, the time to read-out.

The opening 5 entries, to show the layout:
no.	gene	robust z-score, knock-down alone	viability vs control pool, no drug (fraction)	synergy score with BYL719	synergy score with cetuximab	synergy score with trametinib	outcome
1	SPEG (striated muscle enriched protein kinase)	-0.268	0.934	-0.305	-0.264	-0.0644	inactive
2	WNK2 (WNK lysine deficient protein kinase 2)	0.58	1	-0.117	-0.211	-0.172	inactive
3	DYRK1B	0.58	1	-0.169	-0.12	0.0307	inactive
4	ULK1 (unc-51 like autophagy activating kinase 1)	0.58	1	-0.103	-0.211	0.0183	inactive
5	MAP4K5 (mitogen-activated protein kinase kinase kinase kinase 5)	-1.85	0.81	-0.206	-0.0977	-0.0954	inactive

The list itself, repeating the preview:
no.	gene	robust z-score, knock-down alone	viability vs control pool, no drug (fraction)	synergy score with BYL719	synergy score with cetuximab	synergy score with trametinib	outcome
1	SPEG (striated muscle enriched protein kinase)	-0.268	0.934	-0.305	-0.264	-0.0644	inactive
2	WNK2 (WNK lysine deficient protein kinase 2)	0.58	1	-0.117	-0.211	-0.172	inactive
3	DYRK1B	0.58	1	-0.169	-0.12	0.0307	inactive
4	ULK1 (unc-51 like autophagy activating kinase 1)	0.58	1	-0.103	-0.211	0.0183	inactive
5	MAP4K5 (mitogen-activated protein kinase kinase kinase kinase 5)	-1.85	0.81	-0.206	-0.0977	-0.0954	inactive
6	MTOR (mechanistic target of rapamycin kinase)	0.58	1	-0.21	-0.211	-0.036	inactive
7	GALK1 (galactokinase 1)	-0.837	0.889	-0.115	-0.275	-0.172	inactive
8	TK2 (thymidine kinase 2)	0.442	0.989	-0.0968	-0.126	-0.069	inactive
9	MAP3K13 (mitogen-activated protein kinase kinase kinase 13)	0.58	1	-0.152	-0.0191	0.127	inactive
10	SCYL3 (SCY1 like pseudokinase 3)	0.58	1	-0.19	0.0261	-0.0219	inactive
11	BMX (BMX non-receptor tyrosine kinase)	0.58	1	-0.166	-0.211	0.0121	inactive
12	CLK4 (CDC like kinase 4)	0.58	1	-0.0981	-0.0629	0.0932	inactive
13	ASPM (assembly factor for spindle microtubules)	-0.548	0.912	-0.0722	-0.0518	0.0081	inactive
14	RPS6KA5 (ribosomal protein S6 kinase A5)	-1.25	0.857	-0.125	-0.0106	0.0459	inactive
15	CKM (creatine kinase, M-type)	0.58	1	-0.237	-0.211	-0.0311	inactive
16	CDK5R1 (cyclin dependent kinase 5 regulatory subunit 1)	-0.309	0.931	-0.147	-0.105	0.0355	inactive
17	TJP2 (tight junction protein 2)	0.58	1	-0.137	-0.211	0.0538	inactive
18	ATR (ATR checkpoint kinase)	0.237	0.973	-0.133	-0.203	0.00801	inactive
19	PHKA1 (phosphorylase kinase regulatory subunit alpha 1)	0.58	1	-0.181	-0.0239	-0.0784	inactive
20	UHMK1 (U2AF homology motif kinase 1)	0.58	1	-0.272	0.00409	0.0321	inactive
21	CSK (C-terminal Src kinase)	0.448	0.99	-0.115	-0.175	-0.226	inactive
22	DLG2 (discs large MAGUK scaffold protein 2)	0.529	0.996	-0.275	-0.00643	-0.01	inactive
23	ITPKA (inositol-trisphosphate 3-kinase A)	0.58	1	-0.101	-0.159	-0.0745	inactive
24	AKT2 (AKT serine/threonine kinase 2)	-0.247	0.935	0.0119	-0.0981	-0.00802	inactive
25	CTCF (CCCTC-binding factor)	-0.872	0.886	-0.264	-0.233	-0.057	inactive
26	PRKCG (protein kinase C gamma)	0.58	1	-0.236	-0.211	-0.0185	inactive
27	MAP3K11 (mitogen-activated protein kinase kinase kinase 11)	0.58	1	-0.114	-0.211	-0.04	inactive
28	TCF12 (transcription factor 12)	0.58	1	-0.224	-0.0972	-0.0393	inactive
29	PAK3 (p21 (RAC1) activated kinase 3)	0.18	0.969	-0.0584	-0.0209	0.0777	inactive
30	PEAK1 (pseudopodium enriched atypical kinase 1)	-1.24	0.857	-0.0876	-0.0981	0.00243	inactive
31	DYRK4 (dual specificity tyrosine phosphorylation regulated kinase 4)	-2.57	0.754	-0.128	0.0264	0.0269	inactive
32	PRKAG3 (protein kinase AMP-activated non-catalytic subunit gamma 3)	-4.79	0.58	-0.161	-0.124	-0.068	active
33	BMP2K (BMP2 inducible kinase)	-1.9	0.806	-0.178	0.0872	0.078	inactive
34	ULK2 (unc-51 like autophagy activating kinase 2)	0.58	1	-0.164	-0.0644	-0.0169	inactive
35	ALDH18A1 (aldehyde dehydrogenase 18 family member A1)	0.58	1	-0.161	-0.0929	-0.187	inactive
36	RIOK1 (RIO kinase 1)	0.58	1	-0.235	-0.211	-0.0332	inactive
37	SMG1	-2.11	0.79	-0.266	-0.141	-0.00707	inactive
38	PIK3R5 (phosphoinositide-3-kinase regulatory subunit 5)	0.58	1	-0.272	0.022	-0.0165	inactive
39	MAP3K10 (mitogen-activated protein kinase kinase kinase 10)	0.58	1	-0.272	-0.171	-0.0785	inactive
40	MAPK7 (mitogen-activated protein kinase 7)	0.58	1	-0.184	-0.211	-0.03	inactive
41	CAMK1D (calcium/calmodulin dependent protein kinase ID)	0.58	1	-0.121	-0.106	0.0474	inactive
42	FLT4 (fms related receptor tyrosine kinase 4)	0.58	1	-0.221	-0.0634	-0.0835	inactive
43	PLK1 (polo like kinase 1)	-7.07	0.402	-0.0722	-0.0947	-0.0054	active
44	NAGK (N-acetylglucosamine kinase)	-1.36	0.848	-0.194	-0.186	-0.106	inactive
45	STKLD1 (serine/threonine kinase like domain containing 1)	-0.528	0.913	-0.0827	-0.0964	0.0504	inactive
46	NRK (Nik related kinase)	0.58	1	-0.22	-0.128	-0.0817	inactive
47	TBK1 (TANK binding kinase 1)	0.58	1	-0.195	-0.211	-0.0355	inactive
48	CALM1 (calmodulin 1)	-0.257	0.935	-0.252	-0.226	0.108	inactive
49	FN3KRP (fructosamine 3 kinase related protein)	-0.429	0.921	-0.131	0.0444	0.0419	inactive
50	MAP3K7 (mitogen-activated protein kinase kinase kinase 7)	0.437	0.989	-0.165	-0.0622	-0.139	inactive
